Positions count from the first letter of the chain named. These are yes or no findings as the source states them, for the method shown. In cells and extracts the contact can be indirect. Some entries that bind do so weakly or less than the wild type. Where a sequence is shown, tags or fusion partners need not be part of it.
Key:
[1] = molecular target: C-terminally hemagglutinin tagged p300 (UniProt Q09472); test: co-IP; Renilla luciferase-based co-immunoprecipitation: lysates (TNTE buffer) of HEK293T cells co-expressing RLuc-fused SnoN forms and p300/HA; α-HA IP; luciferase activity of the immunocomplexes relative to input
[2] = molecular target: C-terminally FLAG-tagged deacetylase inactive HDAC1 (Tyrosine 303 converted to histidine) (UniProt Q13547); test: co-IP; Renilla luciferase-based co-immunoprecipitation: lysates (TNTE buffer) of HEK293T cells co-expressing RLuc-fused SnoN forms and HDAC1/FLAG or HDAC1YH/FLAG; α-FLAG IP; luciferase activity of the immunocomplexes relative to input
[3] = molecular target: C-terminally FLAG-tagged histone deacetylase 1 (UniProt Q13547); test: as above
[4] = molecular target: hemagglutinin-tagged Smad2 (UniProt Q15796); test: co-IP; Renilla luciferase-based co-immunoprecipitation: lysates (TNTE buffer: 50 mM Tris, 150 mM NaCl, 0.5% Triton X-100, 1 mM EDTA) of HEK293T cells co-expressing RLuc-fused SnoN forms, HA/Smad2 or HA/Smad4 and constitutively active TβRI TD; α-HA IP; luciferase activity of the immunocomplexes relative to input
[5] = molecular target: hemagglutinin-tagged Smad4 (UniProt Q13485); test: as above

The chains behind the UniProt entries cited, without tags or fusion partners. Where a name states a change or a piece, a line headed by the entry shows the natural chain unless it says otherwise. A line that says so, or that is headed by a name, gives the form on record, which may keep a tag or linker.
UniProt Q09472: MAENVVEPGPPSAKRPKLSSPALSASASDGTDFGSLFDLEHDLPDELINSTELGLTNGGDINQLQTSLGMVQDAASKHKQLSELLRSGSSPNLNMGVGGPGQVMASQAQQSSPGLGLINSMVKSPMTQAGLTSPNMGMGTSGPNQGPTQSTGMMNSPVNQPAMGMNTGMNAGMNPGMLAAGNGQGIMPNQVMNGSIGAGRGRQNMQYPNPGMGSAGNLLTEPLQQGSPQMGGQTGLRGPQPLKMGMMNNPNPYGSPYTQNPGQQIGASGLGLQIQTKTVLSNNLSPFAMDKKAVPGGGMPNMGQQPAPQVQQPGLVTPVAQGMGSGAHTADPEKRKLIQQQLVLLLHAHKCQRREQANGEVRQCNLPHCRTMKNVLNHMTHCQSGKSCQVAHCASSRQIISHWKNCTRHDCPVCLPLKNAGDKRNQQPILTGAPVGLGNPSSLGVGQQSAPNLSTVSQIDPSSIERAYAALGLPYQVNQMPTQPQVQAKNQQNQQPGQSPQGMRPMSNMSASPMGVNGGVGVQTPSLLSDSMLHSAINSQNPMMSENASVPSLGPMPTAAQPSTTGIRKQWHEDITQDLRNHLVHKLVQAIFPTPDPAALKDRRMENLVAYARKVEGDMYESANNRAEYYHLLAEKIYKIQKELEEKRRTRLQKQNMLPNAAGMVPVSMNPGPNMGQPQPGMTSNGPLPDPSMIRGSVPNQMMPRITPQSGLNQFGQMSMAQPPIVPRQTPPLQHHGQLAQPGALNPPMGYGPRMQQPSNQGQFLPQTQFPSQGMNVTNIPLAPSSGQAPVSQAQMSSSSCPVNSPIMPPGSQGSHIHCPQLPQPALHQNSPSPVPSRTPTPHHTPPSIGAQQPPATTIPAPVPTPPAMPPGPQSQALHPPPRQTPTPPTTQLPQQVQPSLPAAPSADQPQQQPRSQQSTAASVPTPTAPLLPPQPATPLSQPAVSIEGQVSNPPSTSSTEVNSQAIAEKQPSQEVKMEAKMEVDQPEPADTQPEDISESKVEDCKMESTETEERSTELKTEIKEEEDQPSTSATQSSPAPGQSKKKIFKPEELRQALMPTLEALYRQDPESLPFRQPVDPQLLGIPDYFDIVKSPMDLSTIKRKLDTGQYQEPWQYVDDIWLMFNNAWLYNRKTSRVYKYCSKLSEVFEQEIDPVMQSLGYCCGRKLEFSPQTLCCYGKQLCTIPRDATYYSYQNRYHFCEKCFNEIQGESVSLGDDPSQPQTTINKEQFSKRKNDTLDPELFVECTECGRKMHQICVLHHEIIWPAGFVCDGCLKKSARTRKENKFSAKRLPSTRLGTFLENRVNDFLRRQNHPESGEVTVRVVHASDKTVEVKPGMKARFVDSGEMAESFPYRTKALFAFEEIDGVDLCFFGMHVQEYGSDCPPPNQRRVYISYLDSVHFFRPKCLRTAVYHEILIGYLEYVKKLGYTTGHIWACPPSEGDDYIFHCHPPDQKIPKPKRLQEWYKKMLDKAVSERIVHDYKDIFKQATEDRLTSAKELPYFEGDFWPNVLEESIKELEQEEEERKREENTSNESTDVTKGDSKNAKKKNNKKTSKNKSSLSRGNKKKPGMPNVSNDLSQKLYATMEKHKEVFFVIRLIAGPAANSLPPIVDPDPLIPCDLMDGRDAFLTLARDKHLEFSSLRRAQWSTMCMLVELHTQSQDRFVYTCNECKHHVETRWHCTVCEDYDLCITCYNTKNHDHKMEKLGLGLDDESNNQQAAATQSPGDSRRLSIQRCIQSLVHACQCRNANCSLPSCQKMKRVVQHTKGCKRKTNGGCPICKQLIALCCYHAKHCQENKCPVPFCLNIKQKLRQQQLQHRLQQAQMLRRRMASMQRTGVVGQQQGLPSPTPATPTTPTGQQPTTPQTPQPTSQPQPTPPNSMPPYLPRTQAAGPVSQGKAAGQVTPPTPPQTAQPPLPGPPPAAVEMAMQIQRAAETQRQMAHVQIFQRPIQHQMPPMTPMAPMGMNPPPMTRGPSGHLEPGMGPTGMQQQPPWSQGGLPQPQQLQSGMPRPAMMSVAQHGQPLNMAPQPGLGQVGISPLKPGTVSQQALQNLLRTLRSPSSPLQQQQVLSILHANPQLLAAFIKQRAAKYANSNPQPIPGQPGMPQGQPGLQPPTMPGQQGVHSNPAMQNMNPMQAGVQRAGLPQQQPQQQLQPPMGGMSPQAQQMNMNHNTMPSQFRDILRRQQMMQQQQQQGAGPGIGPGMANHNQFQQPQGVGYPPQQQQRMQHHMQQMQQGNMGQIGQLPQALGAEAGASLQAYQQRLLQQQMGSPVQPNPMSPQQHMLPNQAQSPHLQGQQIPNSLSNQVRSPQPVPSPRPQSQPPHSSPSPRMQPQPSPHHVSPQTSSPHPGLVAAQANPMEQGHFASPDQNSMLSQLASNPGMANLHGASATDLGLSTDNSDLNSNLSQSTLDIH
UniProt Q13547: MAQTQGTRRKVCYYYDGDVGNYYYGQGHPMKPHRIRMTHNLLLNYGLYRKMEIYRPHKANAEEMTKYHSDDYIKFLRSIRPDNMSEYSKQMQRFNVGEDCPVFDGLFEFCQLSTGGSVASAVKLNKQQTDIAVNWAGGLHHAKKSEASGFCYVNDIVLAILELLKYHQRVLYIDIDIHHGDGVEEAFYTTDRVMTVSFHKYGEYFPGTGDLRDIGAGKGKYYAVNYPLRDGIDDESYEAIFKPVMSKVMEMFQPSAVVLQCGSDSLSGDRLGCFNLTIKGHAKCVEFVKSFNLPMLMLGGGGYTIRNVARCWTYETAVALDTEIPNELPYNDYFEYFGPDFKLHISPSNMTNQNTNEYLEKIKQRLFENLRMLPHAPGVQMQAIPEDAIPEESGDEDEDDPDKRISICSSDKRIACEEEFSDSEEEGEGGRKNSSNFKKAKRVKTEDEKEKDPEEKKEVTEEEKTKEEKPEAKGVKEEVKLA
C-terminally FLAG-tagged deacetylase inactive HDAC1 (Tyrosine 303 converted to histidine) (Q13547, form named): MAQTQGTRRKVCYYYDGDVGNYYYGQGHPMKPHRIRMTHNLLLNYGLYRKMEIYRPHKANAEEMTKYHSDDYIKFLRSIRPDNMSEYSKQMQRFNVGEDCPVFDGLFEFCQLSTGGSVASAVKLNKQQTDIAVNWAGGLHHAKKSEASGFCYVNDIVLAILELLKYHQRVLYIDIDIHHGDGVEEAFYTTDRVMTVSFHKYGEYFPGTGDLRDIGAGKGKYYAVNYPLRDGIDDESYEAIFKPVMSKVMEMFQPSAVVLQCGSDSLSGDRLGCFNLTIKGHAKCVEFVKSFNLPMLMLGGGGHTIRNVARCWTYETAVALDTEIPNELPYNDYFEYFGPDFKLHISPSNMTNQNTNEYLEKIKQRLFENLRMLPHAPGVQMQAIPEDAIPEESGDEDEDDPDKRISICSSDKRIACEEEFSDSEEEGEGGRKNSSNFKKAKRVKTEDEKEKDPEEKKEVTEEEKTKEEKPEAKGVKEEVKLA
UniProt Q15796: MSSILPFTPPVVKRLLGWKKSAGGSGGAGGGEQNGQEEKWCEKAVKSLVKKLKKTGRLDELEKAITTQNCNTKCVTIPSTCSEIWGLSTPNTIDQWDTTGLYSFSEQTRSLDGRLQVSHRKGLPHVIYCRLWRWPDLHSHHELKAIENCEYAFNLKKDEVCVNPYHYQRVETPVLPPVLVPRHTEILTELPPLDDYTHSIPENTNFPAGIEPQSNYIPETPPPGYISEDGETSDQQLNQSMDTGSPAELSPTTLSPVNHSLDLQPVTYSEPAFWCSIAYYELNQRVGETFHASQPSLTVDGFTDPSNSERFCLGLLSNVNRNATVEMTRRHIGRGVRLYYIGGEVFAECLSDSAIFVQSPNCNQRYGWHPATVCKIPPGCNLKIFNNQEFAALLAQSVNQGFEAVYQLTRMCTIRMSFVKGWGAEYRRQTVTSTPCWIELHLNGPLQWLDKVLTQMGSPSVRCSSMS
UniProt Q13485: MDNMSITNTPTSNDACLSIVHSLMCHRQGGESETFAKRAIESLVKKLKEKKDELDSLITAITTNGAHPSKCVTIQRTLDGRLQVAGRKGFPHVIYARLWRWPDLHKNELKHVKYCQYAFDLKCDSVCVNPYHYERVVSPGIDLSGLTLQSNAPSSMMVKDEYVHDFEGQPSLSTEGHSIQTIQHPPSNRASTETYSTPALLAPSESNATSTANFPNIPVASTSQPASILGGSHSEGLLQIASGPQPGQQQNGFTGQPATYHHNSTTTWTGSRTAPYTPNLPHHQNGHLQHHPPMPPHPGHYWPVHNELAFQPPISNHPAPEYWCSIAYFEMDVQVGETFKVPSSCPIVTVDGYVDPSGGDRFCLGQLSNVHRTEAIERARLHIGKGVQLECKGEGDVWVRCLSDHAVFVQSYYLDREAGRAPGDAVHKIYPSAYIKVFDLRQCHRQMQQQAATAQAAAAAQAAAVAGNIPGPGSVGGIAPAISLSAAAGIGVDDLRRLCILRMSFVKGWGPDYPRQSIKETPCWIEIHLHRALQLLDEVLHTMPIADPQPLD

Measured: binding

B1: Renilla Luciferase (RLuc) tagged-SnoN, wild type (protein, UniProt P12757-1 1-684)
chain: MENLQTNFSLVQGSTKKLNGMGDDGSPPAKKMITDIHANGKTINKVPTVKKEHLDDYGEAPVETDGEHVKRTCTSVPETLHLNPSLKHTLAQFHLSSQSSLGGPAAFSARHSQESMSPTVFLPLPSPQVLPGPLLIPSDSSTELTQTVLEGESISCFQVGGEKRLCLPQVLNSVLREFTLQQINTVCDELYIYCSRCTSDQLHILKVLGILPFNAPSCGLITLTDAQRLCNALLRPRTFPQNGSVLPAKSSLAQLKETGSAFEVEHECLGKCQGLFAPQFYVQPDAPCIQCLECCGMFAPQTFVMHSHRSPDKRTCHWGFESAKWHCYLHVNQKYLGTPEEKKLKIILEEMKEKFSMRSGKRNQSKTDAPSGMELQSWYPVIKQEGDHVSQTHSFLHPSYYLYMCDKVVAPNVSLTSAVSQSKELTKTEASKSISRQSEKAHSSGKLQKTVSYPDVSLEEQEKMDLKTSRELCSRLDASISNNSTSKRKSESATCNLVRDINKVGIGLVAAASSPLLVKDVICEDDKGKIMEEVMRTYLKQQEKLNLILQKKQQLQMEVKMLSSSKSMKELTEEQQNLQKELESLQNEHAQRMEEFYVEQKDLEKKLEQIMKQKCTCDSNLEKDKEAEYAGQLAELRQRLDHAEADRQELQDELRQEREARQKLEMMIKELKLQILKSSKTAKE
binds: all assays above

B2: Renilla luciferase-tagged SnoNKdR (SUMO loss of function SnoN, Lysines 50 and 383 converted to arginine) (protein, UniProt P12757-1 1-684)
chain: B1 chain with K50R, K383R
binds: [3] | [4] | [5]
